Laboratory results: PubChem BioAssay AID602258 (National Center for Advancing Translational Sciences (NCATS), 2012)
This list was built around the results that the source calls inconclusive (neither active nor inactive); the mix of calls is not that of the screen. A potency beside an inconclusive call is a rough fit, not a confirmed value. The source made the active and inactive calls. Calls come from the whole dose curve; as a rule, active = well fitted activation curve with a large enough effect; inconclusive = small, poorly fitted or top-dose-only effect; inactive = no such curve, though single readings can be large or run the other way.

The chains behind the UniProt entries cited, without tags or fusion partners. Where a name states a change or a piece, a line headed by the entry shows the natural chain unless it says otherwise.
UniProt Q8WXD0: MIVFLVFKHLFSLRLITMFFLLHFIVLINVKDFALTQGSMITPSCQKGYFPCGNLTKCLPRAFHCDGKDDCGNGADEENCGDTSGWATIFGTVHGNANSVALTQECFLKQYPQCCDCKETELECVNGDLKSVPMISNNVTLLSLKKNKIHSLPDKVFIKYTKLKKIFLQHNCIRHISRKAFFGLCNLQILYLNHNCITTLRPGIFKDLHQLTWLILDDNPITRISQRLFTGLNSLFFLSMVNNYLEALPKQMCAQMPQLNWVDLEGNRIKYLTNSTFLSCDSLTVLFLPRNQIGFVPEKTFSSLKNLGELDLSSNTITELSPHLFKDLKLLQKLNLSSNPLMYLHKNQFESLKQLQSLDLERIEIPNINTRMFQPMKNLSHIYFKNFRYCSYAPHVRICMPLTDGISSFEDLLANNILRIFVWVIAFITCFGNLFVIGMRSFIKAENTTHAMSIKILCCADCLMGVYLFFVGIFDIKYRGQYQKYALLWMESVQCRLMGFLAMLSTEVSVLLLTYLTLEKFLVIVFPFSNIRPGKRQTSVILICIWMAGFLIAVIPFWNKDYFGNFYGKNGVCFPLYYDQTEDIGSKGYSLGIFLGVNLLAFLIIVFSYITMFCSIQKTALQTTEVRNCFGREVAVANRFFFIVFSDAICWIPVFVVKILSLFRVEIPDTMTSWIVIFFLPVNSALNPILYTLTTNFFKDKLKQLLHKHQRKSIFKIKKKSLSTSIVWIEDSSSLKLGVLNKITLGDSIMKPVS

biological target: Relaxin receptor 2 (Homo sapiens) (UniProt Q8WXD0); assay: qHTS Assay for Agonists of the Relaxin Receptor RXFP1: RXFP2 SAR; details: HEK293 RXFP2 cAMP TR-FRET agonist, 30 min; series mostly up to 78.1 µM; activation: at the top concentration
Description: The relaxin hormone is involved in the variety of biological functions in normal tissues and diseases. The role of relaxin is well-established in female reproduction and parturition, mammary gland and endometrial development, maintenance of myometrial quiescence during pregnancy. Relaxin signaling through its G protein-coupled receptor (GPCR) RXFP1 results in ECM remodeling through regulation of collagen deposition, cell invasiveness, proliferation and overall tissue homeostasis. […] Recombinant human relaxin (rhRlx) is currently being tested in clinical trials as a protective agent in congestive heart failure, in treating severe preeclampsia, and as an anti-fibrotic agent in systemic sclerosis. Upon relaxin binding RXFP1 activation leads to the activation of adenylate cyclase (AC) via Gs. cAMP will activate PKA, which phosphorylates many signaling proteins. Thus, detection of cAMP increase is an easy and reliable indication of relaxin receptor activation. To screen for agonists of the relaxin receptor, a HEK293T cell line stably transfected with RXFP1 was used. RXFP1 activation was assayed by changes in cAMP levels as detected with a time-resolved fluorescence energy transfer (TR-FRET) cAMP detection kit. This assay measures activation of a cell expressing RXFP2, another GPCR targeted by relaxin, to determine the selectivity of compounds for RXFP1. NIH Chemical Genomics Center [NCGC] NIH Molecular Libraries Probe Production Centers Network [MLPCN] MLPCN Grant: R03 MH085705-01A1 Assay Submitter (PI): Alexander Agoulnik
This is a cell-based assay for cAMP second messenger response to screen for agonists of the RXFP2 receptor. The assay was conducted in the presence of a PDE4 inhibitor (Ro 20174). The cells were lysed and the cAMP levels were measured with a TR-FRET cAMP kit. Presence of cAMP in the cell lysate disrupts binding between the cryptate-labeled anti-cAMP and d2-labeled cAMP pair, leading to a decrease in the TR-FRET signal. Data were normalized to the controls for basal activity (buffer only) and 100% activity (29 nM porcine relaxin). The EC50 values were determined from concentration-response data modeled with the standard Hill equation 1536-well assay protocol for the HEK293 RXFP2 cAMP assay: (1) Add 3 ul HEK293 RXFP2 cell culture. 2000 cells/well in DMEM/F12, 10% FBS, 1x Pen/Strep (dispensed offline with MultiDrop Combi). (2) Incubate 16-24 hr at 37C, 5% CO2. (3) Add 1 ul 400uM Ro20174 in DPBS, 0.05% BSA, 0.005% Tween 20. (3) Add 23 nl compounds in DMSO solution. Final concentration was 0.5 - 58 uM. (4) Incubate 30 min at 37C, 5% CO2. (5) Add 1 ul cAMP-d2 in lysis buffer (HTRF cAMP HiRange kit, CisBio). (6) Add 1 ul anti-cAMP antibody-cryptate in lysis buffer (HTRF cAMP HiRange kit, CisBio). (7) Incubate 30 min at room temperature. (6) Detect the assay plate in a ViewLux plate reader (PerkinElmer) with Ex=320 nm, Em1=615 nm and Em2=665 nm. Keywords: relaxin, RXFP1, RXFP2, G-protein coupled receptor, cAMP, agonist, high throughput screening, MLSMR, MLSCN, NIH Roadmap, qHTS and NCGC

Q: `CCOc1ccccc1C(=O)Nc1ccncc1C(=O)Nc1cccc(S(=O)(=O)C(F)(F)F)c1` was tested. Which Potency did it give?
A: active: 9.4 µM

Q: `O=C(Nc1cccc(F)c1)c1ccccc1NC(=O)C1CCCCC1` was tested. Which “activation” value did it give?
A: inactive: 5.01%

Q: Which Potency does the source give for `CC(C)Oc1ccccc1C(=O)Nc1ccccc1C(=O)Nc1cccc(S(=O)(=O)C(F)(F)F)c1` here?
A: inconclusive: 1.49 µM [activator, full curve]

Q: For `O=C(Nc1ccccc1C(=O)Nc1cccc(C(F)(F)F)c1)c1cccnc1`, which “activation” value is on record?
A: inactive: -3.42%

Q: `O=C(Nc1ccccc1)c1ccccc1NC(=O)C1CCCCC1` was tested. Which “activation” value did it give?
A: inactive: 7.12%

Q: With `COc1ccccc1C(=O)Nc1ccccc1C(=O)Nc1cccc(SC(F)(F)F)c1` as the compound, how does the Potency read?
A: inconclusive: 3.34 µM [activator, full curve]

Q: `COc1cccc(NC(=O)c2ccccc2NC(=O)C2CCCCC2)c1` was tested. Which “activation” value did it give?
A: inactive: 7.76%

Q: How did the Potency turn out when `COCCOc1ccccc1C(=O)Nc1ccccc1C(=O)Nc1cccc(C(F)(F)F)c1` was run?
A: active: 5.29 µM

Q: `O=C(Nc1ccccc1C(=O)Nc1cccc(C(F)(F)F)c1)c1ccccc1` was tested. Which Potency did it give?
A: inconclusive: 74.7 µM [activator, partial curve]

Q: For `COc1ccccc1Nc1ccccc1C(=O)Nc1cccc(C(F)(F)F)c1`, which Potency is on record?
A: inconclusive: 14.9 µM [activator, partial curve]

Q: How did the Potency turn out when `O=C(Nc1cccc(C(F)(F)F)c1)c1ccccc1NC(=O)c1ccccc1OC(F)(F)F` was run?
A: inconclusive: 2.97 µM [activator, full curve]

Q: `CCOc1ccccc1C(=O)Nc1sccc1C(=O)Nc1cccc(S(=O)(=O)C(F)(F)F)c1` was tested. Which Potency did it give?
A: inconclusive: 23.6 µM [activator, partial curve]

Q: Which “activation” value does the source give for `COc1ccccc1C(=O)Nc1ccccc1C(=O)N(C)c1cccc(C(F)(F)F)c1` here?
A: inactive: 3.35%

Q: With `CCOc1ccccc1C(=O)Nc1ccccc1C(=O)Nc1cccc(S(=O)(=O)C(F)(F)F)c1` as the compound, how does the Potency read?
A: active: 7.47 µM

Q: How did the Potency turn out when `CCOc1ccccc1C(=O)Nc1cccnc1C(=O)Nc1cccc(S(=O)(=O)C(F)(F)F)c1` was run?
A: inconclusive: 1.88 µM [activator, full curve]
